# Primary screen of a compound library

Mtb growth Cornell: 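Whole-cell assay for inhibitors of Mycobacterium tuberculosis growth, labelled Cornell in the record; the read-out is not stated. The concentration is filed as 10 mM, unlikely as a test dose, so the dose is not known. Higher means stronger inhibition (inferred from two other growth screens of the library). Size under these conditions: about 53,000 compounds, about 900 of them at 50% or above in at least one test.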
Mtb heat-shock: 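Assay on Mycobacterium tuberculosis, filed only as a heat shock assay from Cornell; the read-out is not stated. The concentration is filed as 10 mM, unlikely as a test dose, so the dose is not known. Higher reads as stronger inhibition (inferred: compounds with an IC50 in retests scored well above the rest). Size under these conditions: about 69,000 compounds, about 930 of them at 50% or above in at least one test.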

Values are the deposited “Percent Effect”, in %. The controls that fix the scale are not given in the record; negative values are as filed. The compounds are a random part of those screened. A dash means the value is not listed here; it may have been measured.

SMILES	Mtb growth Cornell	Mtb heat-shock
COC(=O)N1CCC2(CC1)N=C(CCC(C)C)NC2=O	-15.87%	95.71%
CCc1ccc2nc(NCCCN(CCO)CCO)cc(C)c2c1	-	-21.25%
CCN1CCC2(CC1)CC(NC(=O)c1csnn1)c1ccccc1O2.O=C(O)C(F)(F)F (stereo not given)	8.198%	54.1%
O=C(NCCc1ccccc1)C1CCC(Cn2cnnn2)CC1 (stereo not given)	-	16.3%
COC(=O)N1CCc2ccccc2C1C(=O)NCc1nc(C)no1 (stereo not given)	-2.45%	12.02%
CC(C)OCCC(=O)NCCc1csc(N2CCCC2)n1	-16.85%	-27.47%
COc1nn(C)c2c1CCCN(C(=O)c1ccc[nH]1)C2	16.16%	6.093%
Cn1cc(-c2ncc3c(c2C(=O)O)CCN(Cc2ccco2)C3)cn1.O=C(O)C(F)(F)F	-4.045%	15.24%
COc1ccc(CNC2CCCN(Cc3noc(C)n3)C2)cc1F (stereo not given)	-4.497%	-2.084%
CN(C)CCN(Cc1ccc(C(F)(F)F)cc1)C(=O)c1cc[nH]n1	-3.954%	-8.854%
CC(C)N1CCCC(c2cc(C(F)(F)F)nc3nccn23)C1 (stereo not given)	55.76%	-3.941%
Cc1ccc(C(C(=O)N2CC(c3ccccn3)C2)N(C)C)cc1 (stereo not given)	-8.025%	-2.2%
Cc1ccoc1C(=O)NC1CCN(C(=O)Nc2ccccn2)CC1	-	-4.447%
Cc1ccc(NC(=O)Nc2cnc(N3CCN(C)CC3)nc2)c(Cl)c1	2.92%	14.82%
Cc1ccc(C)c(S(=O)(=O)N2CCN(C)C3(CCC(=O)N(C)CC3)C2)c1 (stereo not given)	-	8.31%
Cc1cc(C)nc(N2CCC(C(=O)Nc3n[nH]c(C(C)C)n3)CC2)n1	43.64%	14%
CCN(Cc1ccco1)C(=O)NCc1nnc2n1CCC2	-	6.246%
COc1ccc(CCNC(=O)NCC(O)c2cccc(F)c2)cc1 (stereo not given)	-20.76%	-5.644%
Cc1ccc(C(=O)NCc2ccc(N3CCCC(C(N)=O)C3)cc2)o1 (stereo not given)	-0.2113%	-4.997%
Cc1cc(N2CCC3(CCC(=O)N(CC4CC4)C3)CC2)nc(N)n1	24.38%	9.737%
CC(C)NC1CCN(CCc2ccc3c(c2)CCO3)CC1	56.74%	12.65%
CN1C(=O)CC(C(=O)O)C12CCN(Cc1ccc(F)cc1Cl)CC2 (stereo not given)	18.75%	-11.05%
COC(CNC(=O)c1cn(C)nn1)c1ccc(C)s1 (stereo not given)	4.128%	4.055%
CC(C)OCc1ncn2c1CN(CC1CC1)CCC2.O=C(O)C(F)(F)F	-16.79%	-10.62%
O=C(NCc1ccccc1)N1CCc2ncnc(NC3CC3)c2CC1	-1.843%	-2.833%
[H][C@@]12CN(Cc3cccnc3)CCO[C@]1([H])CN(C(=O)c1c(C)noc1C)C2	17.04%	-16.06%
COc1cccc(-n2nnc(C(=O)N3CCN(C)CC3C)c2C)c1 (stereo not given)	-30.86%	7.821%
N[C@H]1CN(C(=O)CCc2cc(Cl)no2)C[C@@H]1c1ccccc1	0.07608%	-16.63%
CC(C)[C@@H]1CN(Cc2c[nH]nc2-c2ccc(F)cc2)C[C@H]1NS(C)(=O)=O	8.791%	-8.846%
CCCc1cc(C(=O)N(Cc2cccnc2)Cc2cccnc2)[nH]n1	24.57%	-21.23%
CCC(C)N(Cc1sccc1C)C(=O)c1ccc2cccnc2n1 (stereo not given)	-	-4.456%
O=C(O)C(F)(F)F.[H][C@@]12COC[C@]1(CNS(C)(=O)=O)CN(Cc1ccc3c(c1)OCO3)C2	4.201%	3.977%
COCCN(C)CCN1CC2(CCN(C3CCOC3)CC2)OC1=O (stereo not given)	12.23%	-13.86%
O=C1CN(Cc2occc2C(=O)NCCc2ccc(F)cc2)CCN1	41.31%	15.58%
Cc1cc(C)c(C(=O)N2CCCC(O)(CN3CCCC3)C2)cc1C (stereo not given)	-6.069%	-5.853%
CC(C)CCN1N=C(C(=O)N2CCCCCC2)S(=O)(=O)c2ccccc21	8.314%	-14.47%
O=C(NCC(=O)N1CCCCC1)c1ccoc1	-4.211%	-6.786%
Cc1ocnc1C(=O)N1CCC(c2nccn2Cc2ccncc2)CC1	23.02%	2.784%
CC(C)COCC1CN(Cc2ccco2)Cc2ncn(C)c21 (stereo not given)	-	-9.146%
COc1cccc(NC(=O)CNc2ccc(C(=O)N(C)C)c(Cl)c2)c1	-	1.238%
Cc1cc(N(C)C)nc(C2CCCNC2)n1.Cl (stereo not given)	4.345%	-4.07%
COc1ccc(C)cc1-n1cnnc1C1CC(=O)N(C)C1 (stereo not given)	-65.43%	24.57%
CN1CCN(Cc2cnc3n2CCN(C(=O)c2cnccn2)C3)CC1	36.62%	-2.061%
CSCCCNC(=O)C(c1cccc(F)c1)N(C)C (stereo not given)	13.42%	-9.927%
Cc1ccc(OCc2occc2C(=O)N2CCOC(C(=O)O)C2)cc1 (stereo not given)	-	-2.532%
CC(C)CCn1[nH]c(CNc2ccc(Cl)cc2)nc1=O	42.86%	-22.92%
O=C(Nc1ccccc1)[C@H]1O[C@H](CCN2CCNCC2)CC[C@@H]1O	5.41%	-18.12%
CCOCC(O)CN1CCN(C(=O)C(C)(C)CC)CC1 (stereo not given)	-	-14.58%
CN(Cc1ccco1)C(=O)[C@H]1CSCN1C(=O)OC(C)(C)C	25.49%	-29.53%
Cc1cc(CN2CCN(C(=O)NCc3nc(C)cs3)CC2)on1	24.85%	-4.37%
COC(=O)N1CCC(Oc2ccc(C(=O)NCCN(C)C)cc2Cl)CC1	-	1.035%
COC(=O)c1sc2nc3c(c(C(F)(F)F)c2c1N)CN(C(C)=O)CC3	-7.109%	-6.75%
CCc1nnc(CN2CCCC(c3cc(C(F)(F)F)[nH]n3)C2)o1 (stereo not given)	-	0.7402%
Cc1cnc(C(=O)N2Cc3ncn(C)c3C(COCC(C)C)C2)cn1.O=C(O)C(F)(F)F (stereo not given)	-9.398%	6.608%
Cn1cc(C2COC3(CCN(C(=O)c4ccccn4)CC3)C2)cn1.O=C(O)C(F)(F)F (stereo not given)	7.358%	-8.21%
CC(Sc1nnc(C2CC2)n1CC(N)=O)c1ccc(Cl)cc1 (stereo not given)	-	14.58%
CCCOc1cc(Cl)c(CN2CCNC(C(=O)NC3CC3)C2)cc1OC (stereo not given)	15.49%	-28.51%
O=C(c1ccc(Cl)cc1)N1CCC2(C1)C(=O)Nc1ccccc12 (stereo not given)	-	-35.04%
COC1CCN(c2ccc(F)cc2CN(C)C(C)C(N)=O)CC1 (stereo not given)	-10.05%	6.073%
Cc1ncsc1C(=O)N1CCCC(CO)(CC2CC2)C1 (stereo not given)	-8.614%	-10.85%
CSc1ccc(-c2nc(CN3C[C@@H](C)NC[C@@H]3C)c(C)o2)cc1	33.64%	-1.533%
O=C(O)C(F)(F)F.O=C(O)C(F)(F)F.[H][C@@]12CCN(Cc3cccs3)C[C@]1(COc1cccnc1)CCO2	25.79%	-30.18%
COC(=O)c1cnc(/C=C/c2ccc(C(=O)O)cc2)s1	-25.72%	0.1724%
CC(NC(=O)N(C)Cc1ccncc1)c1nncn1C (stereo not given)	-30.71%	-8.309%
Cc1cc(N(C)C)nc(N2CCn3c(nnc3C3CC3)C2)n1	-17.45%	-14.43%
COC1CCN(c2ccc(F)cc2CN(C)CC(N)=O)CC1	-33.06%	-1.661%
Cc1ccccc1-c1noc(C2CC(C(C)C)=NO2)n1 (stereo not given)	30.52%	19.46%
CCOCc1cncc2c1CCN(C(=O)c1cccc(C#N)c1)C2	-2.606%	-18.63%
CN(CCc1cn[nH]c1)Cc1nc(Cc2cccc(F)c2)no1	-12.43%	-18.49%
CNC(=O)c1ccc(C2CCCN(C(=O)c3sc(C)nc3C)C2)nc1 (stereo not given)	-24.23%	-8.295%
O=C(O)C(F)(F)F.O=C(O)C(F)(F)F.[H][C@@]12CN(Cc3ccoc3)CCO[C@]1([H])CN(c1ccc(C)nn1)C2	-38.32%	-16.8%

For reference, 9 entries once more:

SMILES	Mtb growth Cornell	Mtb heat-shock
Cc1cc(N2CCC3(CCC(=O)N(CC4CC4)C3)CC2)nc(N)n1	24.38%	9.737%
Cc1ccoc1C(=O)NC1CCN(C(=O)Nc2ccccn2)CC1	-	-4.447%
Cn1cc(-c2ncc3c(c2C(=O)O)CCN(Cc2ccco2)C3)cn1.O=C(O)C(F)(F)F	-4.045%	15.24%
CN(Cc1ccco1)C(=O)[C@H]1CSCN1C(=O)OC(C)(C)C	25.49%	-29.53%
CCOCc1cncc2c1CCN(C(=O)c1cccc(C#N)c1)C2	-2.606%	-18.63%
COCCN(C)CCN1CC2(CCN(C3CCOC3)CC2)OC1=O (stereo not given)	12.23%	-13.86%
CCc1nnc(CN2CCCC(c3cc(C(F)(F)F)[nH]n3)C2)o1 (stereo not given)	-	0.7402%
CC(C)OCc1ncn2c1CN(CC1CC1)CCC2.O=C(O)C(F)(F)F	-16.79%	-10.62%
COC(CNC(=O)c1cn(C)nn1)c1ccc(C)s1 (stereo not given)	4.128%	4.055%

From ChEMBL document CHEMBL3988442, “University of Dundee, Small-Polar-MMV Screening Library” (2021).